These are yes or no findings as the source states them, for the method shown. In cells and extracts the contact can be indirect. Some results given as binding are weak or reduced against the parent protein; the word gives no strength. Where a sequence is shown, tags or fusion partners need not be part of it.
Target: T1, GFP-tagged intact human CD248 (hCD248: WT) (human) (UniProt Q9HCU0)
T1 sequence: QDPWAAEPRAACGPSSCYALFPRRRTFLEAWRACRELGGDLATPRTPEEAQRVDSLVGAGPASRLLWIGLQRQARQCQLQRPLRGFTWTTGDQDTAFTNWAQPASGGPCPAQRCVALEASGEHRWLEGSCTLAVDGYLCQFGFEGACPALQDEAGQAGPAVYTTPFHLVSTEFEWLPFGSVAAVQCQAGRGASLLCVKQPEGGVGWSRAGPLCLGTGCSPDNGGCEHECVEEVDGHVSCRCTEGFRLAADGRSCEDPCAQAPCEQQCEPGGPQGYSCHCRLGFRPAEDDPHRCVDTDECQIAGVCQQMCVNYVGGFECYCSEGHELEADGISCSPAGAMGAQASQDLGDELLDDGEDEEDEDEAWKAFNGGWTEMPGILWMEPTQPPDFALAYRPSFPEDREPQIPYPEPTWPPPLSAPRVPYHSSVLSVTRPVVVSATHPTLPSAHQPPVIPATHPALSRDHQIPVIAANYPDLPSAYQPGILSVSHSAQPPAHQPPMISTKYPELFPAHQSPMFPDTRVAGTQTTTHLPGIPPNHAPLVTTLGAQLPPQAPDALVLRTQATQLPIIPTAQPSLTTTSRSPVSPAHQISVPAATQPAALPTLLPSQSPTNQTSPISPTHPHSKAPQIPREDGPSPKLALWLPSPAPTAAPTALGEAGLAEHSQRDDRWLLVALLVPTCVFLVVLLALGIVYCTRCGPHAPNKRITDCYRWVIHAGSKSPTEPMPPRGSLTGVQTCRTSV
Experiment: co-IP; HEK293T cells overexpressing GFP-tagged intact human CD248 with PDGFRβ or HA-tagged AT1; IP with anti-GFP antibodies, immunoblot for PDGFRβ or HA-tagged AT1

Row | binding | Substance
1 | binds | HA-tagged AT1 (from UniProt P30556 1-359) (receptor)
2 | binds | PDGFRβ (from UniProt P09619 33-1106) (receptor)

Source: paper PMC12104565
